Reference: PubChem BioAssay AID623959 (National Center for Advancing Translational Sciences (NCATS), 2012)
Out of some 1,400 compounds screened, fewer than 10 were called active. Inconclusive results (about 8%) are left out. Calls come from the whole dose curve; as a rule, active = well fitted curve in the direction sought with a large enough effect; inconclusive = small, poorly fitted or top-dose-only effect, or another doubt; inactive = no such curve, though single readings can be large or run the other way. The list shows a part of the results.

The chains behind the UniProt entries cited, without tags or fusion partners.
UniProt Q8NER1, whole entry, looked up: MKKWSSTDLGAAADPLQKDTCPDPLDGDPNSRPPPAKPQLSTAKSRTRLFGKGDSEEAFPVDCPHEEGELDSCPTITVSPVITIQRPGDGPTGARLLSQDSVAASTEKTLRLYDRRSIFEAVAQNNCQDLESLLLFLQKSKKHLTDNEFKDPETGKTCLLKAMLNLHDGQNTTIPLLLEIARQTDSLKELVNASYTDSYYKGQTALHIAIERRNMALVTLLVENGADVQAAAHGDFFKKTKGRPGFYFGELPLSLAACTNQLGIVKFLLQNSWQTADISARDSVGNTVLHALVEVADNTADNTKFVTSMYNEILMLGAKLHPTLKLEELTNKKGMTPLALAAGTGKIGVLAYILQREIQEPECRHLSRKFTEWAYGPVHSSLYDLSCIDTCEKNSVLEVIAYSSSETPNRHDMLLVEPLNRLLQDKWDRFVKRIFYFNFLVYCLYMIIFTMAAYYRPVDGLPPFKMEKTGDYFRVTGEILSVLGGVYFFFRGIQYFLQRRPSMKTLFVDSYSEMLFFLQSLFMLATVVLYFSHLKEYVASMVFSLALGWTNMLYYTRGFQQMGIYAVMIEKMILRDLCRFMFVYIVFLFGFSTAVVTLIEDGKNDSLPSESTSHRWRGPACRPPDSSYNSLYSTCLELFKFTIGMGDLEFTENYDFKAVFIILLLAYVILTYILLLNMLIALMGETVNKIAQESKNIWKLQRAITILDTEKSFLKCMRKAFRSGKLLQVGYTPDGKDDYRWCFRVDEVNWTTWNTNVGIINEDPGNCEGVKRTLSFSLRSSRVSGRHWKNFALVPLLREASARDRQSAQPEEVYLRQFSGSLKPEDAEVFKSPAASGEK

Target: Transient receptor potential cation channel subfamily V member 1 (Homo sapiens) (UniProt Q8NER1)
Assay: qHTS Assay for Compounds that Act as Potentiators of the Vanilloid Receptor 1: Hit Validation; note: % of control where 0% means no effect
Conditions: TRPV1-expressing cells, Fluo-8 calcium influx, capsaicin EC20; series mostly up to 42.1 µM; activity change, positive = potentiation: at the top concentration
Method in brief: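 Calcium influx via Fluo-8 fluorescence (480/520 nm) on FDSS: 10 s baseline, 3 min compound read, 2 min read after EC20 capsaicin. TRPV1-expressing cells plated 2000/well, grown overnight at 35.5 °C.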

Activity change, positive = potentiation, inactive:
C#CCOCCOCCOCCNc1nc(N2CCN(C(=O)[C@H]([C@@H](C)O)n3cc(CCCCN)nn3)CC2)nc(N2CCN(C(=O)[C@H](CCCCN)n3cc(CC(C)O)nn3)CC2)n1 (stereo partly specified) -1.19%
Cc1ccccc1C(=O)Nc1nnc(-c2ccc(C(C)(C)C)cc2)s1 -7.15%
CC(C)(C)c1ccc(S(=O)(=O)Nc2noc3ccccc23)cc1 -12.1%
CC(C)NC(=O)C1CC=CCC1C(=O)O (stereo unspecified) -2.64%
O=C1N=C(N2CCCCC2)S/C1=C\c1ccc(Br)cc1 -38.1%
COc1cc(C(=O)NCC(=O)NCCN2C(=O)S/C(=C\c3ccccc3Cl)C2=O)cc(OC)c1OC 1.09%
CN(CC(=O)Nc1ccc(N2CCOCC2)cc1)C(=O)CCNC(=O)c1ccc(Br)cc1 3.67%
NC(=O)C1CCN(C(=O)CCSCc2ccc(Cl)c(Cl)c2)CC1 -37.3%
COc1ccc(C(=O)C2CCCN(C(=O)CCNC(C)=O)C2)cc1OC (stereo unspecified) -12.9%
Cc1ccc(C(=O)NNC(=O)C2CC2)cc1Br 1.82%
Cc1c(C(=O)Nc2cccc([N+](=O)[O-])c2)cnn1-c1ccccc1 -30.5%
COc1cc(C(=O)NCC(=O)OCC(=O)N2CCc3ccccc32)cc(OC)c1OC -7.21%
Cn1c(SCC(=O)Nc2ccc(F)cc2)nnc1-c1cccnc1 1.91%
Clc1ccc2c(c1)c1cc(Cl)ccc1n2CN1CCOCC1 -6.88%
CCCCCC(=O)Nc1cccc(C2=NOC3(C2)C[C@H](C(N)=O)N(C(=O)CCCCC)C3)c1 (stereo partly specified) 10.4%
COc1ccc(C(=O)Nc2ccc(S(=O)(=O)Nc3cnc4ccccc4n3)cc2)cc1 -12%
COc1ccc(-n2c(SCC(N)=O)nc3nc4c(cc3c2=O)COC(C)(C)C4)cc1 13.3%
COc1cccc(N=Nc2ccc3ccccc3c2O)c1 -10.6%
O=C(N=C1SC2CS(=O)(=O)CC2N1c1cc(Cl)ccc1Cl)C1CCCO1 (stereo unspecified) -1.62%
O=C(CSc1ccc(-c2ccco2)nn1)Nc1ccccc1 -10.3%
Cc1cc(N2CCCC(C(=O)Nc3ccc4c(c3)CCC4)C2)n2ncnc2n1 (stereo unspecified) -34.5%
COc1ccc(-n2nc(C(=O)NCC(=O)NCCC3=CCCCC3)c3ccccc3c2=O)cc1OC 3.24%
Cc1ccc(-n2ncc3c(NCCCOC(C)C)ncnc32)c(C)c1 1.45%
C/C(=N/NC(=O)c1ccncc1)c1c[nH]c2ccccc12 -5.28%
COc1ccc(C(NC(=O)CC(C)C)c2c(O)ccc3ccccc23)cc1 (stereo unspecified) -8.58%
O=C(Nc1ccc(Cl)cc1)OCc1cn(-c2ccccc2)nn1 8.88%
CCc1ccc(NC(=O)c2ccc(S(=O)(=O)NCc3cccnc3)cc2)cc1 -35.4%
CCCCCCN1N=C(C)C(C(=O)c2ccc(Cl)cc2)C1=O (stereo unspecified) -1.6%
CCOc1ccccc1OCCCNCc1ccccc1 0.278%
Cc1nc2c(S(=O)(=O)c3ccccc3)cnn2c(C)c1C -4.75%
N#Cc1c(N2C(=O)Nc3ccccc3N2O)sc2c1CCCCCC2 8.21%
O=C(NCc1cccnc1)C1CCC(c2ccc(Cl)cc2)CC1 (stereo unspecified) -35.9%
CCC(C)Sc1ccc(-c2nc3ccc(C)cn3c2NCc2ccccc2)cc1OC (stereo unspecified) -38.5%
Cc1nc2c(=O)n(-c3cccc(C(F)(F)F)c3)nc(C)c2s1 -37.1%
CCCOC(=O)c1ccc(NC(=O)C2C3CCC(C3)C2C(=O)O)cc1 (stereo unspecified) -30.3%
Cc1ccc(S(=O)(=O)N(C)C)cc1NC(=O)c1ccccc1SCC(=O)N1CCCC1 -3.17%
Cn1c(=O)n(C)c2cc3[nH]cnc3cc21 -1.1%
COc1ccc(N2CCC(CNS(=O)(=O)c3cccc(C(F)(F)F)c3)C2)cc1 (stereo unspecified) -5.77%
Cc1cccc(C)c1OCC(=O)Nc1cccc(S(=O)(=O)N2CCCC2)c1 -3.66%
O=C(NCc1ccc(F)cc1)C1CCCN(c2nc3ccsc3c(=O)s2)C1 (stereo unspecified) -25.5%
COc1ccc(S(=O)CC(=O)Nc2ccccc2Cl)cc1 (stereo unspecified) -3.76%
Cc1cc(C)cc(NC(=S)N2CCC(NC(=O)C3CCCCC3)CC2)c1 -2.73%
COc1cccc(-c2nc3c(c(=O)[nH]c(=O)n3Cc3ccccc3)n2CCO)c1OC(F)F -7.88%
CCCn1c(C(C)Nc2nc(-c3cc(Cl)c(N)c(Cl)c3)cs2)nc2cc(Cl)c(N3CCCCC3)cc21 (stereo unspecified) -34%
O=C(N/N=C/c1cccnc1)c1ccc2c(c1)OCO2 -7.94%
COc1ccc(C(=O)NCCC2=CCCCC2)cc1[N+](=O)[O-] -32.8%
CC(=O)c1c[nH]c(C(=O)NCc2ccccc2Cl)c1 7.13%
CCN(CCNC(=O)c1ccc(C#N)cc1)c1cccc(C)c1 -38.9%
Cc1cc2c(NC(=O)Nc3ccc(C(C)(C)C)cc3)cccc2nn1 -38.9%
CCCCn1c(=O)[nH]c(=O)c2c1nc(-c1ccc(OC)c(Br)c1)n2CC(C)C -3.67%
O=C(Nc1ccc(Cl)cc1)c1ccc2snnc2c1 -36%
CCN(CC)CCNC(=O)C12CC3CC(CC(C3)C1)C2 -0.879%
Cc1ccc(NC(=O)CSc2nnc(-c3cc(C)[nH]n3)n2N)c(C)c1 -5.45%
COc1ccc(OC)c(S(=O)(=O)N2CCC(C(=O)NCCc3ccc(OC)c(OC)c3)CC2)c1 -8.82%
O=[N+]([O-])c1ccc(Cl)c(C[n+]2cccc3ccccc32)c1 -5.15%
C=CCN(Cc1nc(-c2ccccc2)no1)C(=O)c1ccco1 1.6%
COc1ccc(-c2cn3cc(C)ccc3n2)cc1OC -5.92%
O=C(Nc1cccnc1)c1ccc(-c2ccccc2)cc1 -39.5%
O=C(NCc1ccccc1Cl)C1CCCN1C(=O)NC1CCCCC1 (stereo unspecified) -2.85%
CCS(=O)(=O)c1ncc(Cl)c(C(=O)Nc2ccc(S(=O)(=O)N(C)c3ccccc3)cc2)n1 -1.57%
Cc1ccc(NCc2n[nH]c(=S)n2-c2ccccc2)c(C)c1 9.07%
CCn1c(=O)c(C(=O)NC(C)c2ccccc2)c(O)c2ccccc21 (stereo unspecified) 4.96%
O=C(Nc1cccc([N+](=O)[O-])c1)c1ccc(-c2ccccc2)cc1 -38.6%
O=C(Nc1c2c(nn1-c1ccccc1)CS(=O)(=O)C2)c1ccc2c(c1)OCO2 5.08%
CCOc1cc2[nH]c(=S)n(CCC(=O)NCc3ccco3)c(=O)c2cc1OCC -5.05%
Cc1nc(-c2ccc(F)cc2)c(CC(=O)N(C)CC(=O)Nc2ccccc2Br)s1 -6.17%
COc1cccc(/C=C2\SC(N3CCC(C)CC3)=NC2=O)c1OC -38.7%
O=S(=O)(ON(c1ccccc1)S(=O)(=O)c1ccccc1)c1ccccc1 -1%
C=C(Cl)COc1ccc2c(C)cc(=O)oc2c1 0.569%
COc1ccc(S(=O)(=O)N2CCCC2)cc1C(=O)O -4.69%
CCOC(=O)c1c(C)[nH]c(C)c1C(=O)CN1C(=O)NC(CC(C)C)C1=O (stereo unspecified) 0.659%
O=C(CCc1ccccc1)NNC(=O)c1cc(Cl)ccc1O -4.05%
CC(=O)c1ccc(N2CCN(C(=O)Nc3ccc(Cl)cc3)CC2)cc1 -36.8%
CCc1ccc(/C=N/NC(=O)c2c[nH]c3ccccc23)s1 -39%
COc1cc(C(=O)OCC(=O)NC(N)=O)cc(CN2C(=O)c3ccccc3C2=O)c1OC 6.56%
O=C(NCc1cccnc1)c1cccc(S(=O)(=O)N2CCCC2)c1 1.42%
CCC(C)c1ccc(NC(=O)N2CCOCC2)cc1 (stereo unspecified) -38%
Cc1ccc(C(=O)NCCN2CCNC2=O)cc1 0.573%
CCCc1cc(C(=O)NNC(=S)NC(C)c2ccccc2)cs1 (stereo unspecified) 11%
NS(=O)(=O)c1cccc(NC(=O)/C=C/c2cccs2)c1 -39.1%
N#Cc1ccccc1N1CCN(C(=O)c2ccc(NC(=O)c3ccc(Br)o3)cc2)CC1 -2.51%
O=C(/C=C/c1cccc2ccccc12)N1CCOCC1 -31.4%
Cc1nn(-c2ccccc2)c(NC(=O)c2ccccc2)c1Br 1.93%
Cc1cc(C(=O)Nc2ccc([N+](=O)[O-])cn2)cs1 -3.84%
CCOC(=O)[C@H]1[C@H]2COc3ccccc3[C@@H]2N2C(=O)c3ccc(C)cc3NC(=O)[C@@]12C -37.8%
O=C(/C=C\c1cn(-c2ccccc2)nc1-c1cccs1)N1CCOCC1 -37.9%
O=C(NC(Cc1c[nH]c2ccccc12)C(=O)O)/C(=C\c1ccc2c(c1)OCO2)NC(=O)c1ccccc1 (stereo unspecified) -6.18%
CCN(CC)c1ccc(NC(=O)c2cnccn2)cc1S(=O)(=O)Nc1ccc(OC)cc1 -38.7%
O=C(C1=NOC(CNc2ncc(C(F)(F)F)cc2Cl)C1)N1CCOCC1 (stereo unspecified) -39.4%
COc1ccc(C)cc1N(C(=O)COc1ccccc1)c1nc2ccccc2s1 -1.89%
CC(=O)Nc1ccccc1OCc1nnc(-c2ccccc2Cl)o1 -4.83%
Cc1cc2c(cc1C)NC(c1cccnc1)C1=C(CC(C)(C)CC1=O)N2 (stereo unspecified) -7.46%
COc1ccc(/C=N/NC(=O)c2cccnc2)cc1 4.5%
CN1CCN(c2ccc(S(=O)(=O)N3CCCCC3)cc2NC(=O)c2ccc(F)cc2F)CC1 -5.75%
CCCc1cc(=O)[nH]c(SCC(=O)N2CCN(c3ccc(F)cc3)CC2)n1 -6.29%
Cc1noc(C)c1-c1nc(CSc2ccccc2)no1 7.19%
Cc1onc(-c2cccc(Cl)c2Cl)c1C(=O)O/N=C(\N)c1ccc([N+](=O)[O-])o1 -1.45%
O=C(CSc1nnc(Cc2ccccc2)o1)NC1CC2CCC1C2 (stereo unspecified) 6.43%
Cc1ccc(NC(=O)CSc2nnc(Cc3cccn3C)n2-c2ccc(F)cc2)c(C)c1 -7.27%
CC(O)CNc1nc2sc3c(c2c(=O)n1Cc1ccco1)CCCCC3 (stereo unspecified) -2.72%
Cc1cccc(NC(=O)CC23CC4CC(C2)CC(n2nnc(C)n2)(C4)C3)c1 -6.74%
COc1ccc(C2C(C(=O)c3sc(C)nc3C)=C(O)C(=O)N2CCN2CCOCC2)cc1 (stereo unspecified) -1.93%
Cc1cc(NC(=O)CCCOc2ccc(Cl)cc2Cl)no1 -8.04%
Cn1cnnc1SCC(=O)Nc1ccccc1Oc1ccccc1 -6.49%
CCC(C)Sc1nnc(Cc2cc(=O)[nH]c(=O)[nH]2)n1-c1ccc(F)cc1 (stereo unspecified) 3.24%
Cn1c(C(=O)N2CCOCC2)cnc1Sc1ncc(C(F)(F)F)cc1Cl 1.37%

Fetched one by one from the entries so far (4):
Activity change, positive = potentiation, inactive:
O=C(Nc1ccc(Cl)cc1)c1ccc2snnc2c1 -36%
CCN(CC)c1ccc(NC(=O)c2cnccn2)cc1S(=O)(=O)Nc1ccc(OC)cc1 -38.7%
CCCCn1c(=O)[nH]c(=O)c2c1nc(-c1ccc(OC)c(Br)c1)n2CC(C)C -3.67%
C=C(Cl)COc1ccc2c(C)cc(=O)oc2c1 0.569%
